{"source": "PubChem BioAssay AID686938 (Drosophila RNAi Screening Center, 2013)", "screen": "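Fly genes required for calcium entry once internal stores are emptied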 (primary screen)", "cell system": "Drosophila S2R+ cells", "reagent": "long dsRNA against Drosophila genes, about 0.25 µg dsRNA per well, roughly 10,000 cells", "timing": "5 days of knock-down before the calcium assay", "treatment": "thapsigargin (SERCA pump blocker) to empty calcium stores; entry signal taken 4 min after adding it", "measurement": "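Per-well fluo-4 fluorescence in two replicates, unnormalised, measured in resting cells and 4 min after store depletion by the SERCA blocker thapsigargin; ratio of the two present in few wells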", "reading the numbers": "calcium entry signal: higher = stronger calcium signal after store depletion; resting calcium signal: higher = higher resting calcium signal", "units": "calcium entry signal in fluorescence units; resting calcium signal in fluorescence units", "hit rule": "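Hit if the duplicate-averaged plate z-score for entry over resting signal is under −3; wells with weak total dye signal (Fmax z < −2) or more than 5 off-targets removed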", "calls": "active = strongly reduced calcium entry; inactive = no strong reduction", "note": "In all, the deposit lists about 23,000 reagents; below is a random part of those with a known target gene and a result. Over the whole deposit, 75 (0.33%) were called active. 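Raw plate signals without normalisation; calls rest on plate z-scores that were not deposited; ratio present for only 364 wells.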 A number with no mark means an inactive call. A plus sign joins genes that one reagent is predicted to hit. Reagent sequences are not shown. Not stated in the record: the dose of the treatment."}
The opening 2 entries as a preview:
{"gene": "nxf2 (nuclear RNA export factor 2)", "DRSC id": "DRSC10403", "calcium entry signal, replicate 1": 2.72e7, "calcium entry signal, replicate 2": 3.67e7, "resting calcium signal, replicate 1": 1.18e7, "resting calcium signal, replicate 2": 2.51e7}
{"gene": "CG31086 + CG31323", "DRSC id": "DRSC14902", "calcium entry signal, replicate 1": 2.58e7, "calcium entry signal, replicate 2": 7.10e7, "resting calcium signal, replicate 1": 1.46e7, "resting calcium signal, replicate 2": 3.07e7}

Main list, from the start:
{"gene": "nxf2 (nuclear RNA export factor 2)", "DRSC id": "DRSC10403", "calcium entry signal, replicate 1": 2.72e7, "calcium entry signal, replicate 2": 3.67e7, "resting calcium signal, replicate 1": 1.18e7, "resting calcium signal, replicate 2": 2.51e7}
{"gene": "CG31086 + CG31323", "DRSC id": "DRSC14902", "calcium entry signal, replicate 1": 2.58e7, "calcium entry signal, replicate 2": 7.10e7, "resting calcium signal, replicate 1": 1.46e7, "resting calcium signal, replicate 2": 3.07e7}
{"gene": "CG9302", "DRSC id": "DRSC03191", "calcium entry signal, replicate 1": 4.36e7, "calcium entry signal, replicate 2": 1.72e7, "resting calcium signal, replicate 1": 2.16e7, "resting calcium signal, replicate 2": 9.46e6}
{"gene": "CG8642", "DRSC id": "DRSC07228", "calcium entry signal, replicate 1": 4.32e7, "calcium entry signal, replicate 2": 4.28e7, "resting calcium signal, replicate 1": 1.96e7, "resting calcium signal, replicate 2": 1.82e7}
{"gene": "CG3625", "DRSC id": "DRSC00008", "calcium entry signal, replicate 1": 1.46e7, "calcium entry signal, replicate 2": 2.52e7, "resting calcium signal, replicate 1": 7.81e6, "resting calcium signal, replicate 2": 1.06e7}
{"gene": "CG3625", "DRSC id": "DRSC00621", "calcium entry signal, replicate 1": 3.33e7, "resting calcium signal, replicate 1": 1.91e7}
{"gene": "CG31287", "DRSC id": "DRSC13138", "calcium entry signal, replicate 1": 3.42e7, "calcium entry signal, replicate 2": 4.06e7, "resting calcium signal, replicate 1": 1.69e7, "resting calcium signal, replicate 2": 1.83e7}
{"gene": "Fum2 (Fumarase 2)", "DRSC id": "DRSC18345", "calcium entry signal, replicate 1": 2.30e7, "calcium entry signal, replicate 2": 3.29e7, "resting calcium signal, replicate 1": 1.32e7, "resting calcium signal, replicate 2": 1.74e7}
{"gene": "Cpr62Bc (Cuticular protein 62Bc)", "DRSC id": "DRSC08545", "calcium entry signal, replicate 1": 3.47e7, "calcium entry signal, replicate 2": 4.13e7, "resting calcium signal, replicate 1": 1.81e7, "resting calcium signal, replicate 2": 1.97e7}
{"gene": "dpr13 (defective proboscis extension response 13)", "DRSC id": "DRSC06160", "calcium entry signal, replicate 1": 3.20e7, "calcium entry signal, replicate 2": 3.07e7, "resting calcium signal, replicate 1": 1.38e7, "resting calcium signal, replicate 2": 1.48e7}
{"gene": "dpr13 (defective proboscis extension response 13)", "DRSC id": "DRSC06464", "calcium entry signal, replicate 1": 3.06e7, "calcium entry signal, replicate 2": 3.20e7, "resting calcium signal, replicate 1": 1.35e7, "resting calcium signal, replicate 2": 1.55e7}
{"gene": "GNBP3 (Gram-negative bacteria binding protein 3)", "DRSC id": "DRSC11170", "calcium entry signal, replicate 1": 3.43e7, "calcium entry signal, replicate 2": 4.74e7, "resting calcium signal, replicate 1": 1.59e7, "resting calcium signal, replicate 2": 1.93e7}
